# Where a name gives a salt, the structure may show the parent alone. The list shows a part of the results. Plates or batches differ in their baseline, so values are only roughly comparable.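 The clonal Drosophila S2 line carries Smoothened with a circularly permuted GFP inserted in its cytoplasmic tail, which fluoresces once Hh-driven phosphorylation opens an inhibitory loop. Per-cell fluorescence was read by flow cytometry, scaled to Hh-stimulated untreated cells. Hits were groups of inhibitors sharing pathway targets that shifted fluorescence consistently, not single compounds.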
# Test system: Drosophila S2 cl14 SmoIP sensor cells
# Experiment: normalized SmoIP GFP fluorescence (untreated unstimulated = 0%, untreated Hh-stimulated = 100%); higher = more Smo activation sensor fluorescence
# Conditions: compound concentration: 15 uM, 24 h
# [1] = stimulation: Hh conditioned medium (+Hh)
# [2] = stimulation: mock conditioned medium (-Hh)
Compound,normalized SmoIP GFP fluorescence [1],normalized SmoIP GFP fluorescence [2]
CN1CCC(c2c[nH]c3ccc(O)cc23)CC1,113%,-1.51%
CN1CCc2cc3c(cc2[C@H]1[C@@H]1OC(=O)c2c1ccc1c2OCO1)OCO3 [bicuculline],117%,-2.2%
COC(=O)C1=CCCN(C)C1 [arecoline],181%,0.334%
CC[C@@]1(O)C(=O)OCc2c1cc1n(c2=O)Cc2cc3ccccc3nc2-1 [Camptothecine],51.7%,5.98%
CN1[C@@H]2C[C@@H](OC(=O)[C@H](CO)c3ccccc3)C[C@H]1[C@@H]1O[C@@H]12 [Scopolamine-hydrobromide],134%,-20.3%
CCCN1CCOC2c3cc(O)ccc3OCC21 (stereo unspecified),123%,-14.3%
C[C@H]1CCC/C=C/[C@@H]2C[C@H](O)C[C@H]2[C@H](O)/C=C/C(=O)O1 [brefeldin-a],79.6%,-9.35%
CN1CCN(c2nc3ccccc3nc2Cl)CC1,123%,2.46%
CCN(CC)C(=O)c1ccc(C2=CC3(CCNCC3)Oc3cccc(O)c32)cc1,133%,11.3%
Cc1sc2c(c1C)C(c1ccc(Cl)cc1)=N[C@@H](CC(=O)Nc1ccc(O)cc1)c1nnc(C)n1-2,158%,26.5%
COc1ccc(C(CN(C)C)C2(O)CCCCC2)cc1 (stereo unspecified) [Venlafaxine-hydrochloride],127%,1.03%
C#C[C@]1(O)C=C[C@H]2[C@@H]3CCC4=CC(=O)CC[C@@H]4[C@H]3CC[C@@]21CC [Gestodene],154%,14.5%
CCc1c(C(=O)C(N)=O)c2c(OCC(=O)O)cccc2n1Cc1ccccc1,131%,9%
CCN(C)C(=O)Oc1cccc([C@H](C)N(C)C)c1 [rivastigmine-tartrate-exelon],106%,-3.39%
Fc1cc(F)c2c(c1)[C@H]1C=CC[C@H]1C(c1cccnc1)N2 (stereo partly specified) [golgicide-a],126%,1.1%
C=CC[C@]1(O)CC[C@H]2[C@@H]3CCC4=CC(=O)CCC4=C3C=C[C@@]21C [altrenogest],133%,5.47%
C[C@]12CC[C@H]3[C@@H](CC[C@@]45O[C@@H]4C(O)=C(C#N)C[C@]35C)[C@@H]1CC[C@@H]2O [Trilostane],157%,16.8%
Cc1cccc(Cc2c[nH]cn2)c1C [detomidine-hcl],126%,-9.04%
CC(=O)Nc1ccc(OC[C@](C)(O)C(=O)Nc2ccc([N+](=O)[O-])c(C(F)(F)F)c2)cc1 [Andarine],147%,31.3%
C[C@](O)(COc1ccc(C#N)cc1)C(=O)Nc1ccc(C#N)c(C(F)(F)F)c1 [Ostarine],162%,52.9%
Cc1cccc(C)c1NC(=O)CN1CCCC1=O [Nefiracetam(Translon)],125%,-15.8%
C[C@]12CCC(=O)C(O)=C1CC[C@@H]1[C@@H]2CC[C@]2(C)C(=O)CC[C@@H]12 [Formestane],119%,-1.34%
C[C@]12N[C@H](Cc3ccccc31)c1ccccc12 [mk-801-maleate],116%,1.1%
CNCC(=O)c1ccc(O)c(O)c1 [adrenalone-hcl],121%,-0.889%

# Rewritten with bars between the fields: part of the list above
Compound | normalized SmoIP GFP fluorescence [1] | normalized SmoIP GFP fluorescence [2]
CC[C@@]1(O)C(=O)OCc2c1cc1n(c2=O)Cc2cc3ccccc3nc2-1 [Camptothecine] | 51.7% | 5.98%
CN1[C@@H]2C[C@@H](OC(=O)[C@H](CO)c3ccccc3)C[C@H]1[C@@H]1O[C@@H]12 [Scopolamine-hydrobromide] | 134% | -20.3%
C[C@](O)(COc1ccc(C#N)cc1)C(=O)Nc1ccc(C#N)c(C(F)(F)F)c1 [Ostarine] | 162% | 52.9%

# Next results follow:

Compound,normalized SmoIP GFP fluorescence [1],normalized SmoIP GFP fluorescence [2]
N[C@@H]1C[C@H]1c1ccccc1 [tranylcypromine-2-pcpa-hcl],112%,0.588%
COc1ccc(C(=O)N2CCCC2=O)cc1 [Aniracetam],139%,5.98%
C[C@]12CC[C@H](O)CC1=CC[C@@H]1[C@@H]2CC[C@]2(C)C(=O)CC[C@@H]12 [Dehydroepiandrosterone(DHEA)],140%,-11.6%
C[N+](C)(C)CCCCCCCCCC[N+](C)(C)C [decamethonium-bromide],113%,0.986%
CN1[C@@H]2CC(O)C[C@H]1[C@@H]1O[C@@H]12 (stereo partly specified) [scopine],122%,-16.4%
CCCN1C[C@H](CSC)C[C@@H]2c3cccc4[nH]cc(c34)C[C@H]21 [Pergolide-mesylate],167%,28.5%
N#CC(C#N)=Cc1ccc(O)c(O)c1 [ag-18-tyrphostin-23],94.6%,40.5%
O=C(O[C@H]1C[N+]2(CCCOc3ccccc3)CCC1CC2)C(O)(c1cccs1)c1cccs1 [aclidinium-bromide],112%,-4.58%
Cc1cccc(C(C)c2c[nH]cn2)c1C (stereo unspecified) [medetomidine-hcl],120%,-0.151%
CN1c2ccccc2C(NCCCCCCC(=O)O)c2ccc(Cl)cc2S1(=O)=O (stereo unspecified) [Tianeptine-sodium-salt],157%,12.4%
Cc1cc(SCc2sc(-c3ccc(C(F)(F)F)c(F)c3)nc2C)ccc1OCC(=O)O,109%,-0.151%
[O-][n+]1ccccc1[S-].[O-][n+]1ccccc1[S-].[Zn+2] [zinc-pyrithione],114%,36.3%
COC[C@H]1OC(=O)c2coc3c2[C@@]1(C)C1=C(C3=O)[C@@H]2CCC(=O)[C@@]2(C)C[C@H]1OC(C)=O [wortmannin],76.4%,32.6%
CCOc1ccccc1-n1c(C(C)N2CCN(C(=O)COc3ccc(Cl)cc3)CC2)nc2ccccc2c1=O (stereo unspecified) [erastin],221%,69.3%
COc1cc(-n2c(=S)[nH]c3ccccc3c2=O)c(Cl)cc1Cl [mdivi-1],114%,5.87%
CNCC(O)c1ccc(O)cc1 (stereo unspecified) [synephrine-hcl],132%,-15.6%
O=C(NCC1CCOCC1)c1cnc(Nc2ccc(Cl)cc2Cl)nc1C(F)(F)F,98.6%,17.7%
Cc1cccc([C@H](C)c2c[nH]cn2)c1C [dexmedetomidine],121%,1.61%
O=C(O)CNC(=O)c1c(O)c2ccccc2n(Cc2ccccc2)c1=O,125%,0.588%
C=C1C[C@@H]2[C@H](CC[C@]3(C)C(=O)CC[C@@H]23)[C@@]2(C)C=CC(=O)C=C12 [Exemestane],150%,10.7%
C[C@H]1CNCCc2ccc(Cl)cc21 [lorcaserin-hcl],121%,7.58%
C[C@@H]1O[C@@H](O[C@H]2C[C@@H](O)[C@]3(CO)[C@H]4[C@H](O)C[C@]5(C)[C@@H](C6=CC(=O)OC6)CC[C@]5(O)[C@@H]4CC[C@]3(O)C2)[C@H](O)[C@H](O)[C@H]1O [ouabain],101%,-4.47%
CCC(COC(=O)c1cc(OC)c(OC)c(OC)c1)(c1ccccc1)N(C)C (stereo unspecified) [trimebutine],161%,-6.16%
Cc1ccccc1-n1c(Cn2ncc3c(N)ncnc32)nc2cccc(C)c2c1=O,142%,0.605%
